No constants are given. Whether binding was seen depends on the method and setting. Some entries that bind do so weakly or less than the wild type. For some assays here: Tags and fused reporters may be left off the sequences shown.
Columns and labels:
[1] = target: T1, recombinant human Tyro3/Dtk-Fc chimera (R&D Systems, Cat. no. 859-DK) (human) (UniProt Q06418); assay: SPR (Biacore 3000), rhTyro3/Dtk-Fc immobilised on CM5 chip, rmGas6 at 10 µg/mL
T1 sequence: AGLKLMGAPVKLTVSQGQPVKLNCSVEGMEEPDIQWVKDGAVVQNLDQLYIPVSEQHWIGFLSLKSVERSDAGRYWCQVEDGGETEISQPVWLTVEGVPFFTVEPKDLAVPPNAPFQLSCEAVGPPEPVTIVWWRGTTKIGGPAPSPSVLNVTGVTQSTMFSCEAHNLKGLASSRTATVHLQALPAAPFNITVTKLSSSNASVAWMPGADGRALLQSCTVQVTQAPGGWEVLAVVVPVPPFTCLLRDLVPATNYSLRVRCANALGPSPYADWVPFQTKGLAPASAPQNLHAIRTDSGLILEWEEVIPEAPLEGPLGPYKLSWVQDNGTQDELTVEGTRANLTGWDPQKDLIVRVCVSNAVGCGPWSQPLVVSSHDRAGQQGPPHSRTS

By UniProt entry, the sequences of proteins in these tests, tags left out. Where a name states a change or a piece, a line headed by the entry shows the natural chain unless it says otherwise.
UniProt P30530: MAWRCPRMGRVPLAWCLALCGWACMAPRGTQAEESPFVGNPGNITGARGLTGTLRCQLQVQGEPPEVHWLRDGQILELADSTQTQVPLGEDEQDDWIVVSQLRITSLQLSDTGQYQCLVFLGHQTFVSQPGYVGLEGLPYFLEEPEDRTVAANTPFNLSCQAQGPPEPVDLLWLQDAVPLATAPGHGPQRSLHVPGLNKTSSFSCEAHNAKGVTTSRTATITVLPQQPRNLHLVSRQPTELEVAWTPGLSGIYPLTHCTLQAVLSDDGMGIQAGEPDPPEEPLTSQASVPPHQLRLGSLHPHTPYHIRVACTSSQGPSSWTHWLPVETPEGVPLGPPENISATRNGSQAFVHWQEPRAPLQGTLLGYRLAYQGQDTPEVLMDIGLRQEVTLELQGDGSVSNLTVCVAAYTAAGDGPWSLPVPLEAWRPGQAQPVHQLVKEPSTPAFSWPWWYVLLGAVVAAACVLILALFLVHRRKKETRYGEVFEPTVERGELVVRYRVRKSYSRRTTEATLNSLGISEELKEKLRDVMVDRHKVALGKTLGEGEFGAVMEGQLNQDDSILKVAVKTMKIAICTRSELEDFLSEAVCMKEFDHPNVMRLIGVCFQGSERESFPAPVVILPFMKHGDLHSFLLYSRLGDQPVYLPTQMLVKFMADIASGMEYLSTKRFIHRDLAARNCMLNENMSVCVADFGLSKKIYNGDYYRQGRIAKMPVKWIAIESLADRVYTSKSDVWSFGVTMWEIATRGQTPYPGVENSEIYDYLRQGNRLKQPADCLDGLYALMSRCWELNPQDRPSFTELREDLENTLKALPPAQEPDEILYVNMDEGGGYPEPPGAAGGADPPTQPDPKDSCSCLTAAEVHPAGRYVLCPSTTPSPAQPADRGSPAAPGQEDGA

[2] = target: recombinant human Axl-Fc chimera (R&D Systems, Cat. no. 154-AL) (human) (UniProt P30530); assay: SPR (Biacore 3000), rhAxl-Fc immobilised on CM5 chip, rmGas6 at 10 µg/mL
[3] = target: recombinant human Axl-Fc chimera (R&D Systems, Cat. no. 154-AL) (human) (UniProt P30530); assay: SPR two-sample injection (Biacore 3000), rhAxl-Fc on CM5 first saturated with MAb 1H12 (270 µg/mL), then rmGas6 at 25 µg/mL
[4] = target: T1, recombinant human Tyro3/Dtk-Fc chimera (R&D Systems, Cat. no. 859-DK) (human); assay: SPR (Biacore 3000), rhTyro3/Dtk-Fc immobilised on CM5 at 1,429.0 RU, rmGas6 injected at 10 µg/mL, 25 °C [lower panel rmGas6]
[5] = target: recombinant human Axl-Fc chimera (R&D Systems, Cat. no. 154-AL) (human) (UniProt P30530); assay: SPR (Biacore 3000), rhAxl-Fc immobilised on CM5 at 1,308.0 RU, rmGas6 injected at 10 µg/mL, 25 °C [lower panel rmGas6]

binding [1]: binds | binding [2]: binds | binding [3]: binds | binding [4]: binds | binding [5]: binds
B1: recombinant mouse Gas6 (R&D Systems, Cat. no. 986-GS/CF) (ligand, UniProt Q61592 46-674, looked up)
chain: AYQVFEEAKQGHLERECVEEVCSKEEAREVFENDPETEYFYPRYQECMRKYGRPEEKNPDFAKCVQNLPDQCTPNPCDKKGTHICQDLMGNFFCVCTDGWGGRLCDKDVNECVQKNGGCSQVCHNKPGSFQCACHSGFSLASDGQTCQDIDECTDSDTCGDARCKNLPGSYSCLCDEGYTYSSKEKTCQDVDECQQDRCEQTCVNSPGSYTCHCDGRGGLKLSPDMDTCEDILPCVPFSMAKSVKSLYLGRMFSGTPVIRLRFKRLQPTRLLAEFDFRTFDPEGVLFFAGGRSDSTWIVLGLRAGRLELQLRYNGVGRITSSGPTINHGMWQTISVEELERNLVIKVNKDAVMKIAVAGELFQLERGLYHLNLTVGGIPFKESELVQPINPRLDGCMRSWNWLNGEDSAIQETVKANTKMQCFSVTERGSFFPGNGFATYRLNYTRTSLDVGTETTWEVKVVARIRPATDTGVLLALVGDDDVVPISVALVDYHSTKKLKKQLVVLAVEDVALALMEIKVCDSQEHTVTVSLREGEATLEVDGTKGQSEVSTAQLQERLDTLKTHLQGSVHTYVGGLPEVSVISAPVTAFYRGCMTLEVNGKILDLDTASYKHSDITSHSCPPVEHATP
